The results in this text go back to patent US20220074941A1, “HSP90 COMBINATION THERAPY” (Sloan-Kettering Institute for Cancer Research, priority 2011, published 2022).

Protein sequences, listed by entry. Tags and fused reporters are not part of them. Lines headed by an entry give the natural chain unless they say otherwise; changes in a name come on top.
UniProt Q86X55: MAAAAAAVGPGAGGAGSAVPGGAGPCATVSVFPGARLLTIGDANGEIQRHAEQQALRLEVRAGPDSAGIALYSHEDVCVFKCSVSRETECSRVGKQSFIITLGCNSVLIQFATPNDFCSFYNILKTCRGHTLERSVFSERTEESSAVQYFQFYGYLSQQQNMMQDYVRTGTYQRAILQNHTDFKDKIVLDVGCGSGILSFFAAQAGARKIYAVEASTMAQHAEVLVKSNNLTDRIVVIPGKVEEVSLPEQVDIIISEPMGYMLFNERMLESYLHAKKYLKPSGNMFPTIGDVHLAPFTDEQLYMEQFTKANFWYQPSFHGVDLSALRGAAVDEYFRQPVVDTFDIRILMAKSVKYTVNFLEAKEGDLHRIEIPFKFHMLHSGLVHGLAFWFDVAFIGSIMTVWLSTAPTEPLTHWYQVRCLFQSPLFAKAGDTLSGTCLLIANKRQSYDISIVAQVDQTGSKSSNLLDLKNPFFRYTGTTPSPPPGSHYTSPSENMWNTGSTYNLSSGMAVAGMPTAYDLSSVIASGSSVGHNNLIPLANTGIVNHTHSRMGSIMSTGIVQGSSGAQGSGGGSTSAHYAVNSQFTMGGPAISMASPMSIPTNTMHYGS

These are yes or no findings as the source states them, for the method shown. Binding calls can cover weak binding; strength is not graded here.

For the experiment, the target named is histone-arginine methyltransferase CARM1 (human) (UniProt Q86X55). Kind of experiment: sequential PU-H71-bead chemical precipitation from K562 extract, CML cell lines and primary CML cells, Western blot. On the technique in general: In western blotting, separated proteins are transferred to a membrane and probed.

As for “heat shock protein 90 (Hsp90), endogenous, in human cancer and normal cell extracts (from UniProt P07900 2-732)”, the binding entry was “binds”.
